Literature values as cited in paper PMC4440699 (MedChemComm, 2014).

Legend:
MV4-11 leukemia cells = conditions: read-out: IC50 against MV4-11 leukemia cells in vitro; cited from earlier work
[1] = read-out: KD, binding to Zn^++; under the same conditions; cited from earlier work

## O=C(CCCCCCC(=O)Nc1ccccc1)NO [SAHA, suberanilohydroxamic acid]
MV4-11 leukemia cells
  IC50: 700 nM
[1]
  Kd: 2.5 mM
